# Experimental data as given in the odorant receptor screen of Mainland et al. (2015).
# Several values for one entry are separate records, joined by “and”; a condition that tells them apart may be missing. Identical values can stand only once. This is one part of the list. Single wells; the ratio to wells without odorant was worked out here, and repeats agree poorly.
# System: OR1J2 clone 1443
# Assay: odorant receptor activation (CRE luciferase / Renilla) (fold of no-odor wells); higher = more activation
# Settings: 100 µM
row,SMILES,odorant receptor activation
1,CCCCCCCCC=O [nonyl aldehyde],1.02
2,CC12C=CCC1C1CCC3CC(=O)CCC3(C)C1CC2 (stereo not drawn) [androstenone],1.06
3,CCCCCCCCOC(C)=O [octyl acetate],0.95
4,CCCCCC(C)=O [2-heptanone],1.03
5,COc1ccccc1O [guaiacol],0.558
6,CC(=O)OCC=C(C)CCC=C(C)C [geranyl acetate],0.733
7,CC1COCc2cc3c(cc21)C(C)(C)C(C)C3(C)C (stereo not drawn) [galaxolide],1.53
8,C=CCc1ccc(OC)c(OC)c1 [eugenol methyl ether],1.38
9,CC(=O)OC1CC2CCC1(C)C2(C)C (stereo not drawn) [isobornyl acetate],0.717
10,O=C1CCCCCCCCCCCC(=O)OCCO1 [ethylene brassylate],1.69
11,O=C1CCCCC1 [Cyclohexanone],1.06
12,CC(C)(C)c1ccc(CCC=O)cc1 [bourgeonal],0.169
13,CCC1(O)C2(C)CCC(C2)C1(C)C (stereo not drawn) [2-ethylfenchol],0.93
14,COC(=O)c1ccccc1 [methyl benzoate],0.89
15,CC12CCC(CC1)C(C)(C)O2 [cineole],0.261
16,CC1=NC(C)SC1C (stereo not drawn),1.12
17,CC=Cc1ccc(O)c(OC)c1 [isoeugenol],0.958
18,CCCCCOC(C)=O [n-amyl acetate],0.616
19,c1cnccn1 [pyrazine],1.27
20,C=C(C)C1CC=C(C)C(=O)C1 (stereo not drawn) [r-carvone],1.4
21,C=CC(C)(O)CCC=C(C)C (stereo not drawn) [linalool],0.814
22,CC(C)=CCCC(C)=CC=O [citral],0.299
23,CC(=O)c1ccccc1 [acetophenone],0.941
24,CCCCCC(=O)O [caproic acid],0.293
25,CCCCCCOC(=O)CCC [hexyl butyrate],0.696
26,"CC1CCC(C(C)C)C(O)C1 (single isomer, unassigned; (+)) [(+)-menthol]",1.36
27,CC(C)CCC(=O)O [4-methylvaleric acid],1.21
28,CC12C=CCC1C1CCC3=CC(=O)CCC3(C)C1CC2 (stereo not drawn) [androstadienone],0.738

# System: OR1J4 clone 1429
# Assay: as above
# Settings: 100 µM
row,SMILES,odorant receptor activation
1,CCCCCCCCC=O [nonyl aldehyde],0.858
2,CC12C=CCC1C1CCC3CC(=O)CCC3(C)C1CC2 (stereo not drawn) [androstenone],1.34
3,CCCCCCCCOC(C)=O [octyl acetate],0.862
4,CCCCCC(C)=O [2-heptanone],0.98
5,COc1ccccc1O [guaiacol],0.807
6,CC(=O)OCC=C(C)CCC=C(C)C [geranyl acetate],1.02
7,CC1COCc2cc3c(cc21)C(C)(C)C(C)C3(C)C (stereo not drawn) [galaxolide],2.75
8,C=CCc1ccc(OC)c(OC)c1 [eugenol methyl ether],1.51
9,CC(=O)OC1CC2CCC1(C)C2(C)C (stereo not drawn) [isobornyl acetate],0.859
10,O=C1CCCCCCCCCCCC(=O)OCCO1 [ethylene brassylate],1.51
11,O=C1CCCCC1 [Cyclohexanone],0.873
12,CC(C)(C)c1ccc(CCC=O)cc1 [bourgeonal],0.169
13,CCC1(O)C2(C)CCC(C2)C1(C)C (stereo not drawn) [2-ethylfenchol],1.16
14,COC(=O)c1ccccc1 [methyl benzoate],0.832
15,CC12CCC(CC1)C(C)(C)O2 [cineole],0.218
16,CC1=NC(C)SC1C (stereo not drawn),1.11
17,CC=Cc1ccc(O)c(OC)c1 [isoeugenol],1.37
18,CCCCCOC(C)=O [n-amyl acetate],0.95
19,c1cnccn1 [pyrazine],1.22
20,C=C(C)C1CC=C(C)C(=O)C1 (stereo not drawn) [r-carvone],1.21
21,C=CC(C)(O)CCC=C(C)C (stereo not drawn) [linalool],0.915
22,CC(C)=CCCC(C)=CC=O [citral],0.308
23,CC(=O)c1ccccc1 [acetophenone],0.974
24,CCCCCC(=O)O [caproic acid],0.24
25,CCCCCCOC(=O)CCC [hexyl butyrate],0.936
26,"CC1CCC(C(C)C)C(O)C1 (single isomer, unassigned; (+)) [(+)-menthol]",1.22
27,CC(C)CCC(=O)O [4-methylvaleric acid],1.21
28,CC12C=CCC1C1CCC3=CC(=O)CCC3(C)C1CC2 (stereo not drawn) [androstadienone],1.01

# System: OR1K1 clone 1315
# Assay: as above
# Settings: 100 µM
row,SMILES,odorant receptor activation
1,CCCCCCCCC=O [nonyl aldehyde],0.302
2,CC12C=CCC1C1CCC3CC(=O)CCC3(C)C1CC2 (stereo not drawn) [androstenone],1.21
3,CCCCCCCCOC(C)=O [octyl acetate],0.325
4,CCCCCC(C)=O [2-heptanone],2.16
5,COc1ccccc1O [guaiacol],1.21 and 0.926
6,CC(=O)OCC=C(C)CCC=C(C)C [geranyl acetate],0.756 and 1.23
7,C=CCc1ccc(OC)c(OC)c1 [eugenol methyl ether],1.66
8,CC(=O)OC1CC2CCC1(C)C2(C)C (stereo not drawn) [isobornyl acetate],0.81 and 0.861
9,O=C1CCCCCCCCCCCC(=O)OCCO1 [ethylene brassylate],1.36
10,O=C1CCCCC1 [Cyclohexanone],0.674
11,CC(C)(C)c1ccc(CCC=O)cc1 [bourgeonal],0.591
12,CCC1(O)C2(C)CCC(C2)C1(C)C (stereo not drawn) [2-ethylfenchol],0.76
13,COC(=O)c1ccccc1 [methyl benzoate],0.928
14,CC12CCC(CC1)C(C)(C)O2 [cineole],0.799
15,CC1=NC(C)SC1C (stereo not drawn),1.37
16,CC=Cc1ccc(O)c(OC)c1 [isoeugenol],1.01 and 1.69
17,CCCCCOC(C)=O [n-amyl acetate],0.659
18,c1cnccn1 [pyrazine],0.938
19,C=C(C)C1CC=C(C)C(=O)C1 (stereo not drawn) [r-carvone],1.2
20,C=CC(C)(O)CCC=C(C)C (stereo not drawn) [linalool],0.258
21,CC(C)=CCCC(C)=CC=O [citral],0.797
22,CC(=O)c1ccccc1 [acetophenone],3.74
23,CCCCCC(=O)O [caproic acid],0.682
24,CCCCCCOC(=O)CCC [hexyl butyrate],1.09 and 0.862
25,"CC1CCC(C(C)C)C(O)C1 (single isomer, unassigned; (+)) [(+)-menthol]",0.87
26,CC(C)CCC(=O)O [4-methylvaleric acid],0.925
27,CC12C=CCC1C1CCC3=CC(=O)CCC3(C)C1CC2 (stereo not drawn) [androstadienone],0.847 and 0.924
